No constants are given. Whether binding was seen depends on the method and setting. Binding calls can cover weak binding; strength is not graded here. Sequences can lack the tags named with a protein.
Tests used:
[1] = biological target: T1, PRDE-1 (yeast two-hybrid fusion) (C. elegans) (UniProt O17828); assay: two-hybrid
T1 sequence: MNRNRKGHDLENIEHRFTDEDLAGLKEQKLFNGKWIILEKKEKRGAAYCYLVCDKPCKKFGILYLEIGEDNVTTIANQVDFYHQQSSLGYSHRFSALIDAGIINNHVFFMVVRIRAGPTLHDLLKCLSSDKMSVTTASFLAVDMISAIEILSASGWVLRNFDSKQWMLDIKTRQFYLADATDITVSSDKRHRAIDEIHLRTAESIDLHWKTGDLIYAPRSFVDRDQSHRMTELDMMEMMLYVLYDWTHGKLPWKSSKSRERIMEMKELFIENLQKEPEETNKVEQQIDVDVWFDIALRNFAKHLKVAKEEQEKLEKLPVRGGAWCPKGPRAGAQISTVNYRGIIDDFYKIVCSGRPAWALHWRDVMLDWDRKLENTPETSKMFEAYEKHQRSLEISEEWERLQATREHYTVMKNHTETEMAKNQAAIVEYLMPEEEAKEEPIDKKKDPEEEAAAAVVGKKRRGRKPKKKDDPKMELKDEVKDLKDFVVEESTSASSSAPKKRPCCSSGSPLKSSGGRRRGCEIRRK

Amino acid sequences for entries named in this document (tags omitted). A change or cut given only in a name is not applied to a line headed by its entry.
UniProt Q23096: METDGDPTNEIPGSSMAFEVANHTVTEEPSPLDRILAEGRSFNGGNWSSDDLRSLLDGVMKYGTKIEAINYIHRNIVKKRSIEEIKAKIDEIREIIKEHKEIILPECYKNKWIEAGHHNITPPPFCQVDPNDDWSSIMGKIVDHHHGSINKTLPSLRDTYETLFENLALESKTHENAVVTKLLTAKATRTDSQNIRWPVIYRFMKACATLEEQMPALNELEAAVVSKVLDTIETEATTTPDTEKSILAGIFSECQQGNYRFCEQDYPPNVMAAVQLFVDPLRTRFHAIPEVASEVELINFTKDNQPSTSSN

[2] = biological target: T2, SNPC-4 (yeast two-hybrid fusion) (C. elegans) (UniProt P91868); assay: two-hybrid
T2 sequence: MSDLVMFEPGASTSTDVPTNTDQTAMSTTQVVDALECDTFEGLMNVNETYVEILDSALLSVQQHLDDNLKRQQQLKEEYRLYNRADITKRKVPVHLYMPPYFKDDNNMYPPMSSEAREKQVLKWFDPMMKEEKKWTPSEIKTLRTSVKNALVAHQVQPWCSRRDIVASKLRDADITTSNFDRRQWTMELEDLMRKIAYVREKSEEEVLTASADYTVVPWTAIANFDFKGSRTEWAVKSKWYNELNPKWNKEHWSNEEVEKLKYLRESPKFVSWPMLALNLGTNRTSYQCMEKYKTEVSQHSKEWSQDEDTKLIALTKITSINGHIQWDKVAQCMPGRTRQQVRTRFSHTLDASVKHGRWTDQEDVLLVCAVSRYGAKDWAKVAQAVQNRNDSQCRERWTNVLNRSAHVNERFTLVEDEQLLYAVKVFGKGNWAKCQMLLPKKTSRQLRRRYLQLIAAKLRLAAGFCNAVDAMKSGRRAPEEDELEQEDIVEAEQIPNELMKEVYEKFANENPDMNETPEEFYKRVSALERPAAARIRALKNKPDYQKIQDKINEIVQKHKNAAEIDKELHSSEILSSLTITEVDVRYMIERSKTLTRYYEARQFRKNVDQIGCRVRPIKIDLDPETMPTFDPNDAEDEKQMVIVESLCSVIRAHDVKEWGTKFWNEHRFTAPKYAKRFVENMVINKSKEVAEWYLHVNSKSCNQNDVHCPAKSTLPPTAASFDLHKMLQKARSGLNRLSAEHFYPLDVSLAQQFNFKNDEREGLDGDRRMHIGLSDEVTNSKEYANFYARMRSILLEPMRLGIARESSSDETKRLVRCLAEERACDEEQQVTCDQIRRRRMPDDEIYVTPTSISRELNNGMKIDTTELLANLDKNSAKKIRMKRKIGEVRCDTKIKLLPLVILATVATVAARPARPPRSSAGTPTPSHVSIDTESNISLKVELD

binding [1] | binding [2] | Substance
binds |  | TOFU-4 (yeast two-hybrid fusion) (C. elegans)
 | binds | TOFU-5 (yeast two-hybrid fusion) (from UniProt Q23096)
